{
  "source": "patent US20250154611A1",
  "about": "“SYSTEMS AND METHODS TO DETECT STEM CELL STRESS AND USES THEREOF” (Wayne State University, priority 2014, published 2025)",
  "tested_on": "TSCs",
  "assay_type": "cell-based, mouse",
  "conditions": "7 days, 0.5% or 20% O2",
  "note": "For at least one compound, name, drawing or mass did not settle the structure.",
  "data": [
    {"smiles": "O=C(O)C(Cl)Cl", "note": "[DCA, dichloroacetate]", "values": [
      {"measurement": "effect on 5 terminal differentiation markers", "value": "no effects"}
    ]}
  ]
}
